{"source": "paper PMC8673317", "about": "(Journal of medicinal chemistry, 2021)", "origin": "cited, not measured here", "test_system": "CD1 mice", "conditions": "sc; cited from earlier work"}
{"smiles": "CN1CC[C@]23c4c5ccc(O)c4O[C@H]2[C@@H](O)C=C[C@H]3[C@H]1C5", "note": "[morphine]", "values": [{"measurement": "LD50", "result": 750, "unit": "mg/kg"}]}
